{"sequences": {"note": "Chains of the proteins cited; added tags and fusions are not shown. Residues count along the entry.", "UniProt P02769, 25-607": "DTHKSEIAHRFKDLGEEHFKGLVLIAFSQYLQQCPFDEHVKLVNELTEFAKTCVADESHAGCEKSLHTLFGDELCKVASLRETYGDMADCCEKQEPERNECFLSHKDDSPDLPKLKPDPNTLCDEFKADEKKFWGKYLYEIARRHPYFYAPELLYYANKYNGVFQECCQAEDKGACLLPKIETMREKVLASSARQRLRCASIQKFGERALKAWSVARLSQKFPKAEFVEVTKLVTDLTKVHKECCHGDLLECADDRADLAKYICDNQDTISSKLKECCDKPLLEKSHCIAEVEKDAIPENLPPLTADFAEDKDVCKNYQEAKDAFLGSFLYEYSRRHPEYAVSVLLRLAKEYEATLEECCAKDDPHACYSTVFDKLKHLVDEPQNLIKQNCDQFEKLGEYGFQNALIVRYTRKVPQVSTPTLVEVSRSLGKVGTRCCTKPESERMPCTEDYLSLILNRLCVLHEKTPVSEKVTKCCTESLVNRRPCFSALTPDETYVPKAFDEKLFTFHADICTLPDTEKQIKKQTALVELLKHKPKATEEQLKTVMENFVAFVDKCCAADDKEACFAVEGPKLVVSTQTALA"}, "source": "patent US20210322346A1", "about": "“CHEMICALLY MODIFIED CURCUMINS FOR USE IN THE PRODUCTION OF LIPOXINS” (The Research Foundation for The State University of New York, priority 2015, published 2021)", "key": {"IL-10": {"test_system": "IL-10", "experiment": "IL-10 secretion by macrophages from normal rats in culture with high glucose and P. gingivalis LPS", "type": "cell-based, rat"}, "Lipoxin B4": {"test_system": "Lipoxin B4", "experiment": "Lipoxin B4 ELISA in macrophage conditioned media, CFE and serum of diabetic rats", "type": "in vivo, rat", "settings": "STZ-diabetic rats, 30 mg/kg oral once per day for 3 weeks", "description": "Adult rats were made diabetic by I.V. injection of streptozotocin; non-diabetic rats served as controls (n=6 rats per group; all groups). Half of the diabetics (blood glucose >500 mg/dl) were orally administered CMC2.24 (30 mg/kg) once per day for 3 weeks; untreated diabetics (D) and N rats received vehicle alone. PEs were collected at time=0 (ie, before thioglycollate injection into peritoneal cavity). Resident macrophages were isolated from PEs, then incubated in cell culture for 18 hours (370 C; 95% air/5% CO2 atmosphere). Lipoxin B4 levels were measured by ELISA (a) in cell culture serum-free conditioned media; (b) in the cell-free exudates (CFEs); and (c) in serum."}, "[1]": {"test_system": "IL-6 relative to lipoxin A4", "experiment": "Experiment B: IL-6/lipoxin A4 ratio in LPS-exposed macrophages in culture", "type": "cell-based, rat", "settings": "LPS (100 ng/ml)-exposed macrophages, CMC2.24 2 μM", "description": "In the second experiment, macrophages (chronic inflammatory cells), were collected and counted from the peritoneal washes of the six non-diabetic control rats. These cells were then pooled and incubated under different in vitro conditions including: group 1, control Møs; group 2, Møs incubated with lipopolysaccharide (LPS)/endotoxin at 100 ng/ml, final concentration, added to the culture media; group 3, Møs exposed to LPS but treated with CMC2.24 at a final concentration of 2 μM; and group 4, like group 3 except that CMC2.24 was increased to 5 μM (note that in this cell culture experiment, sufficient IL-6 was secreted by the LPS-exposed Møs unlike Experiment A, above)."}, "MMP-9": {"test_system": "MMP-9", "experiment": "MMP-9 activity in BALF of COPD mice (gelatin zymography)", "type": "in vivo, mouse", "settings": "COPD mice exposed to PM2.5, gavage daily 7 days; back to control levels, P<0.05"}, "MMP-2 [2]": {"test_system": "MMP-2", "experiment": "MMP-2 activity in BALF of COPD mice (gelatin zymography)", "type": "in vivo, mouse", "settings": "COPD mice exposed to PM2.5, gavage daily 7 days; P<0.01"}, "TNF-α": {"test_system": "TNF-α", "experiment": "TNF-α in BALF of COPD mice (ELISA)", "type": "in vivo, mouse", "settings": "PM2.5 challenged COPD mice; p<0.05"}, "IL-6": {"test_system": "IL-6", "experiment": "IL-6 in BALF of COPD mice (ELISA)", "type": "in vivo, mouse", "settings": "PM2.5 challenged COPD mice; P<0.05"}, "8-Isoprostane": {"test_system": "8-Isoprostane", "experiment": "8-Isoprostane in BALF of COPD mice (ELISA, oxidative stress)", "type": "in vivo, mouse", "settings": "PM2.5 challenged COPD mice; p<0.01"}, "[3]": {"test_system": "primary alveolar macrophages", "experiment": "Cell viability by CCK-8 assay in primary alveolar macrophages", "type": "cell-based", "settings": "pretreatment more than 5 μM for 0.5 h, PM2.5 100 μg/ml 24 h, dose-dependent 5 to 80 μM", "description": "Human lung epithelial cell line (A549) and primary alveolar macrophage cell culture: Human lung epithelial cell line (A549, ATCC #CCL-185) was purchased from ATCC (Manassas, Va.); and primary alveolar macrophages were prepared from healthy adult animals (swine). A549 cells and primary alveolar macrophages were cultured in RPMI Media 1640 medium supplemented with 10% (v/v) FBS, 1% (v/v) L-glutamine (200 mM) and 1% (v/v) Antibiotic-Antimycotic antibiotics at 37° C. in a humidified 5% CO2 incubator.\nCMC 2.24 treatment and PM2.5 exposure: The cells were subcultured when cells were grown to about 70% confluency. […]\nAnalysis of cell viability by CCK-8 assay: In order to study the effect of CMC2.24 in A549 cells and primary alveolar macrophages after PM2.5 exposure, cell viability was determined using Cell Counting Kit (CCK)-8 kit (Sigma-Aldrich, MO, USA) according to the manufacturer's instructions, A549 cells (0.5×10^4/well) and primary macrophages (1×10^4/well) were cultured in 96-well plates for 24 h and 6 h, respectively; the cells were then exposed to various concentrations of CMC 2.24 (i.e. 0, 1, 5, 10, 20, 30, 40, and 80 μM of CMC 2.24) in the presence or absence of 100 μg/ml PM2.5 in the media for 24 h. […] Then optical density value was measured at 450 nm using a microplate reader (Multiskan Ascent, Thermo Lab systems). […]"}, "NF-κB p65": {"test_system": "NF-κB p65", "experiment": "NF-κB p65 expression and nuclear translocation in PM2.5-treated A549 cells (immunohistochemistry)", "type": "cell-based, human", "settings": "10 and 30 μM"}, "[4]": {"test_system": "emphysematous SP-D KO mice", "experiment": "Lung histology in emphysematous SP-D KO mice", "type": "in vivo, mouse", "settings": "40 mg/kg oral gavage daily for seven days, vs vehicle, p<0.05"}, "MMP-2 [5]": {"test_system": "MMP-2", "experiment": "MMP-2 activity in BALF of SP-D KO mice (gelatin zymography)", "type": "in vivo, mouse", "settings": "emphysematous SP-D KO mice, 40 mg/kg oral gavage daily for seven days; p<0.05"}, "[6]": {"test_system": "S. aureus-infected hTG SP-B mice", "experiment": "Lung histopathology (lung injury score) in S. aureus pneumonia", "type": "in vivo, mouse", "settings": "infected SP-B-C and SP-B-T mice, 48 h after infection, vs Pneu control; p<0.01"}, "Caspase-3": {"test_system": "Caspase-3", "experiment": "Caspase-3 expression in lung in S. aureus pneumonia (Western blot)", "type": "in vivo, mouse", "settings": "infected SP-B-C and SP-B-T mice, vs respective controls; p<0.01"}, "SP-B": {"test_system": "SP-B", "experiment": "SP-B levels in BALF in S. aureus pneumonia (Western blot)", "type": "in vivo, human", "settings": "infected SP-B-C and SP-B-T mice, 48 h, vs respective controls; p<0.05"}, "MMP-2 [7]": {"test_system": "MMP-2", "experiment": "MMP-2 activity in BALF in S. aureus pneumonia (zymography)", "type": "in vivo, mouse", "settings": "infected SP-B-C and SP-B-T mice, vs respective controls; p<0.05"}, "MMP-12": {"test_system": "MMP-12", "experiment": "MMP-12 activity in BALF in S. aureus pneumonia (casein zymography)", "type": "in vivo, mouse", "settings": "infected SP-B-C and SP-B-T mice, vs respective controls; p<0.05"}, "Zinc binding": {"experiment": "Zinc binding", "type": "physicochemical"}, "bovine serum albumin": {"biological_target": "bovine serum albumin (Bos taurus, UniProt P02769)", "settings": "cited from earlier work"}, "[8]": {"settings": "cited from earlier work"}}, "note": "At least one structure is not confirmed: it was looked up by name or label, or the drawing left a doubt.", "data": [{"compound": "O=C(/C=C/c1ccc(O)cc1)C(C(=O)/C=C/c1ccc(O)cc1)C(=O)Nc1ccccc1", "note": "[CMC2.24]", "values": [{"measurement": "IL-10 secretion by macrophages in cell culture", "setting": "IL-10; LPS, CMC2.24 2 μM", "value": "normalized"}, {"measurement": "IL-10 secretion by macrophages in cell culture", "setting": "IL-10; high glucose (550 mg/dL) and LPS, CMC2.24 5 μM", "value": "normalized"}, {"measurement": "Lipoxin B4 in rat serum", "setting": "Lipoxin B4", "value": "increases"}, {"measurement": "Lipoxin B4 in resident peritoneal cell-free exudates", "setting": "Lipoxin B4", "value": "increases"}, {"measurement": "IL-6/lipoxin A4 hyper-inflammatory ratio", "setting": "[1]", "value": "did not significantly reduce"}, {"measurement": "MMP-9 activity in BALF supernatant", "setting": "MMP-9", "value": "significantly inhibited"}, {"measurement": "MMP-2 activity in BALF supernatant", "setting": "MMP-2 [2]", "value": "significantly inhibited"}, {"measurement": "level of TNF-α in BAL fluid", "setting": "TNF-α", "value": "significant decrease"}, {"measurement": "level of IL-6 in BAL fluid", "setting": "IL-6", "value": "decreased substantially"}, {"measurement": "levels of 8-Isoprostane in BALF", "setting": "8-Isoprostane", "value": "decreased significantly"}, {"measurement": "cell viability (CCK-8) after PM2.5", "setting": "[3]", "value": "significant improvement"}, {"measurement": "NF-κB p65 expression and nuclear translocation", "setting": "NF-κB p65", "value": "inhibited significantly"}, {"measurement": "lung histology (inflammatory cell infiltration, alveolar structure)", "setting": "[4]", "value": "decreased inflammatory cell infiltration and improved alveolar structure"}, {"measurement": "MMP-2 activity in the BALF", "setting": "MMP-2 [5]", "value": "significantly reduced"}, {"measurement": "lung injury scores", "setting": "[6]", "value": "lower"}, {"measurement": "Caspase-3 expression in lung", "setting": "Caspase-3", "value": "decreased levels"}, {"measurement": "SP-B levels in BALF", "setting": "SP-B", "value": "higher"}, {"measurement": "MMP-2 activity in BALF", "setting": "MMP-2 [7]", "value": "decreased levels"}, {"measurement": "MMP-12 activity in BALF", "setting": "MMP-12", "value": "decreased levels"}, {"measurement": "zinc binding relative to CMC2.5", "setting": "Zinc binding", "value": "greater zinc binding capability"}, {"measurement": "binding to bovine serum albumin", "setting": "bovine serum albumin", "value": "bind fairly strongly"}, {"measurement": "zinc binding relative to curcumin", "setting": "[8]", "value": "superior zinc-binding ability"}]}]}
